The target of test [1] is GST-tagged NG2-cytosolic-tail (UniProt Q00657). As to the kind of experiment: pull-down; bead-coupled GST-NG2-cytosolic-tail variants incubated with lysates of HEK293T cells overexpressing HA-Stonin1-μHD, 2 h at 4 °C; 50 mM Tris pH 8, 150 mM NaCl, 1% IGEPAL; immunoblot with HA antibodies; only the target purified. (In western blotting, separated proteins are transferred to a membrane and probed.)

By UniProt entry, the sequences of proteins in these tests, tags left out. Where a name states a change or a piece, a line headed by the entry shows the natural chain unless it says otherwise.
UniProt Q00657: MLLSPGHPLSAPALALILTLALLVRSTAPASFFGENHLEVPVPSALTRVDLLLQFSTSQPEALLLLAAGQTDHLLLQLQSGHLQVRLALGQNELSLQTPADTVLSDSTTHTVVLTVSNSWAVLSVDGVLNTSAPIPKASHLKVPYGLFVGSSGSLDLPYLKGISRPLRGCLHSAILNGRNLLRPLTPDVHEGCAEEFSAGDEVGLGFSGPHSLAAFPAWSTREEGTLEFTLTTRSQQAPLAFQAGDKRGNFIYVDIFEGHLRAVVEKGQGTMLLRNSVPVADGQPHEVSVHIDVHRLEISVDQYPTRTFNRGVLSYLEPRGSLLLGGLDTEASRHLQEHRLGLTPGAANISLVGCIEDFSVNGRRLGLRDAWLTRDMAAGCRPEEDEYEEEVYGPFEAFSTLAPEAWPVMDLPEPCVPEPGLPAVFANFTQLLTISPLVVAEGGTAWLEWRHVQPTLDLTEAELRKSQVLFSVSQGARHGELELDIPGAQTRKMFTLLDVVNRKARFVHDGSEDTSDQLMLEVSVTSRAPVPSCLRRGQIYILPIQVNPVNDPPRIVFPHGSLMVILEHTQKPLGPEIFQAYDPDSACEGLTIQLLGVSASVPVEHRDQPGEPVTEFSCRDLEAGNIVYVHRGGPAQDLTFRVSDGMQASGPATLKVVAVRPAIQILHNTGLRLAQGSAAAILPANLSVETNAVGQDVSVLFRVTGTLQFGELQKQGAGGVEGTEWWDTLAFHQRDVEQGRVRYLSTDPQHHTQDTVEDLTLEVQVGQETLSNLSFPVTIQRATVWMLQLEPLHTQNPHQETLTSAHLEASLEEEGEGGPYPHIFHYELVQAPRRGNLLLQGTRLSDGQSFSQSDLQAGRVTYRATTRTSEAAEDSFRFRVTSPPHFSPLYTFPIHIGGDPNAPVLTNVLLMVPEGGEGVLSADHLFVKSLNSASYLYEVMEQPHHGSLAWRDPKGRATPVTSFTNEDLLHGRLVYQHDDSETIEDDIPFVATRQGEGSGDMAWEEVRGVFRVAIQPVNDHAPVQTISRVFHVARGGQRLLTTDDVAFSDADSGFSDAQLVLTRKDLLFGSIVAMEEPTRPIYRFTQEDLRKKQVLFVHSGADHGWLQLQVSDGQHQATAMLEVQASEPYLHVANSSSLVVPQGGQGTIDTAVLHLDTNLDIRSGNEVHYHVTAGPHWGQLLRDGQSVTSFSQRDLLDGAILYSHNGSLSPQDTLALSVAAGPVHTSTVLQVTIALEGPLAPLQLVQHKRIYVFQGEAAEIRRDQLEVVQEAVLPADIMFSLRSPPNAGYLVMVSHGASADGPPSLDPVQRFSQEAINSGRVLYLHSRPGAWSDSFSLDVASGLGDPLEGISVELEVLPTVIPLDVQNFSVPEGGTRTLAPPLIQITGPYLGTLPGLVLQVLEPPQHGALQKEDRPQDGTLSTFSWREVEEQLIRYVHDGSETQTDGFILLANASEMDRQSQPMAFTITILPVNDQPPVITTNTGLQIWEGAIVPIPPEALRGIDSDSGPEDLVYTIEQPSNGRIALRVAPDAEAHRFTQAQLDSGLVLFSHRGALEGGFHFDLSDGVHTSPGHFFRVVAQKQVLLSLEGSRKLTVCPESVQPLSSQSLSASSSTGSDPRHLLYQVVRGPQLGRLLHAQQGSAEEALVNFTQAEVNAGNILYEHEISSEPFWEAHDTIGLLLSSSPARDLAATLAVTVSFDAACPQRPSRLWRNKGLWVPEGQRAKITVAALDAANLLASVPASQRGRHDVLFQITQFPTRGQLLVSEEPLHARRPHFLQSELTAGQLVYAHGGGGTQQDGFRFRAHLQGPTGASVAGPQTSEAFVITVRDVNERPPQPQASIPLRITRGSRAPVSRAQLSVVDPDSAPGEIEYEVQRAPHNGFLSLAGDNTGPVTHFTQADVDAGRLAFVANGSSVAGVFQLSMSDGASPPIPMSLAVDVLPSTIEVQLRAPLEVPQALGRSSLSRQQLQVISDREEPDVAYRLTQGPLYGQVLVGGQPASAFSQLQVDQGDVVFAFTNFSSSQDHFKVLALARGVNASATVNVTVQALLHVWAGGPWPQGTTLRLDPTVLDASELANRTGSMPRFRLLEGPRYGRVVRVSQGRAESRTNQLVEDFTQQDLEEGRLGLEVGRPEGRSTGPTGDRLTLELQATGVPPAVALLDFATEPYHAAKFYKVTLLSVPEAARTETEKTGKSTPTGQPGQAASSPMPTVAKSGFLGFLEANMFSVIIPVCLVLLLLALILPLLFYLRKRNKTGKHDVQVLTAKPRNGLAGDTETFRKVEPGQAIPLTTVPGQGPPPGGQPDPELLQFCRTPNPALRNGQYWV

Test [2] shares this target. The test can be described thus: pull-down; bead-coupled GST-NG2-cytosolic-tail incubated with lysates from WT and Stonin1-/- mouse lungs, 2 h at 4 °C; immunoblot with Stonin1 antibodies; only the target purified.

No constants are given. Whether binding was seen depends on the method and setting. Binding seen in cells or lysates may run through a third protein. A result given as binding can be weak or reduced; the word gives no strength. For some assays here: Sequences can lack the tags named with a protein.

Our source for the binding values is PMC4600748.

B1: HA-tagged Stonin1-μHD (Stonin1-405-730) (domain or fragment, UniProt Q8CDJ8 405-730)
chain: YEEQEICLDIQDSLWGKVTKEGQLVESAVVTQICCLCFLNGPAECFLALNDRELQKRDECYFEKEPEKKGIAILDYHFHTCVKAEEFEQSRIIKFVPLDACRFELMRFKTSYEAGELPFAVKSVVTVQGAYVELQAFVNMTPAAQGSPHAGALRSCNNIMIHFPVPAQWIKALWTRNLQRQKSLKAKMNRRACLGSLQEPESEPVIQVTVGSAKYESAYRAVVWKIDRLPDKNSSPDQPHCLSYKLELGSDQEVPSDWYPFATVQFSMLEACASRTEVRSLGVESDAQPQKHVCQRACYNIQVEIEKKWIQVDGEDADKTGGCVTQ
As to B1, the binding result in test [1] is listed as “binds”.

B2: Stonin1, endogenous (mouse lung) (protein, UniProt Q8CDJ8 1-730)
chain: MYSTNPGSWVTFDDDPAFQSSQKRKDFSLETQGVCRPNGLKLTLPTLRDPPSTPSSASSTPLSSPMVDFYFSPGPPSNSPLSTPTKDFPGFPGIPKAGTHVLYPIPECSSSSAPTTAGGVGPPLLLTKPDCSPHVSLPSSHSHTQPTPTLGFTEDAGPQRVQSEARQFEYFQDHCAFSNPFWKDEGSASPFPLDSLASRKPFSPKDKEVPIGHKSLTQCSLDYICEKLEHLHSAETQDPLGDLSMQDPYAGDTVSFVPHSLFRSQPRAGWSFMLRIPEKKNMMSSRQWGPIFLKVLPGGILQMYYEKGLEKPFKEFQLDPHCRLSEPKLENFSMAGKIHTVKVEHVSYSEKRKYHAKTEVVHEPEVEQMLKLGSTEHRDFLEFLTTVEEELIKLPATAKPKNKSYEEQEICLDIQDSLWGKVTKEGQLVESAVVTQICCLCFLNGPAECFLALNDRELQKRDECYFEKEPEKKGIAILDYHFHTCVKAEEFEQSRIIKFVPLDACRFELMRFKTSYEAGELPFAVKSVVTVQGAYVELQAFVNMTPAAQGSPHAGALRSCNNIMIHFPVPAQWIKALWTRNLQRQKSLKAKMNRRACLGSLQEPESEPVIQVTVGSAKYESAYRAVVWKIDRLPDKNSSPDQPHCLSYKLELGSDQEVPSDWYPFATVQFSMLEACASRTEVRSLGVESDAQPQKHVCQRACYNIQVEIEKKWIQVDGEDADKTGGCVTQ
With B2, in test [2], the binding result is recorded as “binds”.
